Assay results published in US8318163 (Genentech, dated 2012).
Results are given in words; binding and its absence hold for the method and conditions named. Some binding calls cover weakened binding; strength is not graded here.

How the values were obtained:
[1] = target: T1, human Nrp1 protein (BIAcore analyte) (human, UniProt O14786 22-586, limits assumed); assay: BIAcore (FIG. 11)
T1 construct: no residue range for such an Nrp1 construct is printed; also called neuropilin-1
T1 sequence (looked up): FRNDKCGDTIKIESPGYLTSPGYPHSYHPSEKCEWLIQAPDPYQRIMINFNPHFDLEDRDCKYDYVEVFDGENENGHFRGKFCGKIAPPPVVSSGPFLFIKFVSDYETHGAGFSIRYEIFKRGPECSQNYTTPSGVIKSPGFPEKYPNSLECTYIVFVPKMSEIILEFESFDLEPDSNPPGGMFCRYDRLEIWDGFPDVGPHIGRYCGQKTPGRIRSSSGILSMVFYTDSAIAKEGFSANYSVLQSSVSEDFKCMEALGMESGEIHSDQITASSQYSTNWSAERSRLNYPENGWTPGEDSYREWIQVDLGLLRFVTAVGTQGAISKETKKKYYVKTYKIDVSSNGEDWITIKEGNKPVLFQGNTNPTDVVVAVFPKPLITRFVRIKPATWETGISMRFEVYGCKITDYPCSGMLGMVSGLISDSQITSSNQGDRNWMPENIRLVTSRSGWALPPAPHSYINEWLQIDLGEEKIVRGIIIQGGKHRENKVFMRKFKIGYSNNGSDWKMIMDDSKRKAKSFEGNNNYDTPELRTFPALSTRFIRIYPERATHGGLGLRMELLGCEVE

[2] = target: T1, human Nrp1 protein (BIAcore analyte); assay: BIAcore, IgG immobilized, 500 nM human NRP protein injected, 25 C
[3] = target: T1, human Nrp1 protein (BIAcore analyte); assay: BIAcore (SPR), 500 nM Nrp protein injected over immobilized IgG at 25 C

Measured: binding

B1: anti-panNrp^A antibody, clone YW68.11.26 (IgG) (antibody, V domains shown)
VH: EVQLVESGGGLVQPGGSLRLSCAASGFTISGYGIHWVRQAPGKGLEWVAYIYPDSGYTDYADSVKGRFTISADTSKNTAYLQMNSLRAEDTAVYYCAREDFRNRRRLWYVMDYWGQGT
VL: DIQMTQSPSSLSASVGDRVTITCRASQDVSTAVAWYQQKPGKAPKLLIYSASFLYSGVPSRFSGSGSGTDFTLTDSSLQPEDFATYYCQQAWAYLTTFGQGTKVEIKR
notes: Human IgG1 from a synthetic phage library; immobilized as IgG on the BIAcore chip
binds: all assays above
